PubChem BioAssay AID504847 (National Center for Advancing Translational Sciences (NCATS), 2011)
Values joined by “and” are separate entries in the source; they are usually repeats but may differ in a detail not shown here. Identical values can stand only once. The campaign covered roughly 400,000 compounds. About 3,700 (0.93%) were called active. Inconclusive results, whose numbers are uncertain, are shown with a selection of clear calls. The call rests on the fitted dose curve; in most records, active means well fitted inhibition curve with a large enough effect; inconclusive means small, poorly fitted or top-dose-only effect, or another doubt; inactive means no such curve, though single readings can be large or run the other way. A potency beside an inconclusive call is a rough fit, not a confirmed value.
On the % scale 0 is the no-effect control and ±100 the full control effect; potency means the concentration at half of the fitted maximal effect.

Chains of the proteins cited; added tags and fusions are not shown. Lines headed by an entry give the natural chain unless they say otherwise; changes in a name come on top.
UniProt P11473: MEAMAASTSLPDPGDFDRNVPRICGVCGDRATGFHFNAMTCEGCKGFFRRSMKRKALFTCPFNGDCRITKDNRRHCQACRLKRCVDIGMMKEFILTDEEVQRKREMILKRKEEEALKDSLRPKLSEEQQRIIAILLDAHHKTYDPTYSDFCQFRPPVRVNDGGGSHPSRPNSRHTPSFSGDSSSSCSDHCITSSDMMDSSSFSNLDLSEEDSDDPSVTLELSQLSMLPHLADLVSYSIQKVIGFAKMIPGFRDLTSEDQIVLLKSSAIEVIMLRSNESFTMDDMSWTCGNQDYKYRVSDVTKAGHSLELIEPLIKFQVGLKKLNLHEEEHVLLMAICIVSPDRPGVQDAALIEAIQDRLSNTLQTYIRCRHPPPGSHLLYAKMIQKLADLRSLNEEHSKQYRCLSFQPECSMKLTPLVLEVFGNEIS

What follows are molecules tested against Vitamin D3 receptor (Homo sapiens) (UniProt P11473) (assay: Inhibitors of the vitamin D receptor (VDR): qHTS). Details: VDR-SRC2-3 peptide fluorescence polarization, 2 h; max response, negative = inhibition: active compounds read low.
In short: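 Compounds are added to VDR with labelled SRC2-3 coactivator peptide and held 2 h at room temperature. Inhibition of the VDR–peptide interaction is then read as a change in fluorescence polarization.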
In the case of `CC/C(=N\Nc1nncc2ccccc12)c1ccc(F)cc1`, the max response, negative = inhibition is reported as inactive: 0%.
For `CC(C)Oc1ccc(C(=O)N2CCC(c3nc4ccccc4o3)CC2)cc1`, the max response, negative = inhibition was inactive: -2.97%.
For `CCOC(=O)NC(=O)/C(C#N)=C(/C)N(C)C`, the max response, negative = inhibition was inactive: -18.7%.
For `Brc1ccc(C2CC(c3ccccc3)=Nc3ccccc3N2)cc1` (centres undefined), the Potency was inconclusive: 39.8 µM [inhibitor, full curve, poor fit].
For `CN(CC(=O)Nc1cccc(F)c1)C(=O)c1cc(-c2ccco2)nc2ccccc12`, the Potency was inconclusive: 89.1 µM [inhibitor, single point].
For `O=C(/C=C/c1ccc(NC(=O)c2ccccc2-c2ccccc2C(=O)O)cc1)c1ccccc1`, the Potency was active: 20 µM.
With `CN1C=CC2=C(C#N)C(N)C(C#N)(C#N)C(c3ccccc3)C2C1` (centres undefined) the Potency was inconclusive: 79.4 µM [inhibitor, partial curve].
In the case of `Clc1ccc(C2=Nc3cc(Cl)ccc3OC2)cc1`, the Potency is reported as inconclusive: 79.4 µM [inhibitor, partial curve, poor fit].
For `N=c1ccn2c(n1)OCC1C2O[C@@H](O)[C@H]1O` (some centres undefined), the max response, negative = inhibition was inactive: -4.97%.
In the case of `Cc1cccc(COCC(CC(C)C)N2CCN(C(=O)c3ccc(C(C)(C)C)cc3)CCC2=O)c1` (centres undefined), the Potency is reported as inconclusive: 100 µM [inhibitor, partial curve, poor fit].
In the case of `N=C1c2ccccc2CN1NC(=O)COc1ccc(Cl)cc1`, the Potency is reported as inconclusive: 89.1 µM [inhibitor, partial curve, poor fit].
`Cc1ccc(C2CC(=O)N3CN(c4ccc(Br)cc4)CSC3=C2C#N)o1` (centres undefined) was tested, and the Potency was active: 44.7 µM.
In the case of `NC(=O)CSc1oc(-c2ccco2)nc1S(=O)(=O)c1ccccc1`, the max response, negative = inhibition is reported as inactive: 3.75%.
For `CC(C)(C)c1cccc(Cn2nnc3ccccc32)c1O`, the Potency was inconclusive: 35.5 µM [inhibitor, partial curve, poor fit].
With `CCC(Sc1nc2ccc(N)cc2s1)C(=O)Nc1nccs1` (centres undefined) the max response, negative = inhibition was inactive: 14.3%.
With `O=C(N/N=C\c1ccc(-c2ccccc2[N+](=O)[O-])o1)C1COc2cc3ccccc3cc2O1` (centres undefined) the Potency was inconclusive: 44.7 µM [inhibitor, partial curve, poor fit].
For `COc1ccc(NS(=O)(=O)c2ccc3c(c2)oc(=O)n3C)c(OC)c1`, the Potency was inconclusive: 1.58 µM [inhibitor, partial curve, poor fit].
With `CN(C)CCNC(=O)c1cccc(NS(=O)(=O)c2ccc(Cl)c(Cl)c2)c1` the max response, negative = inhibition was inactive: 26.3%.
`O=C(Oc1ccccc1)N1CCC2(CCCN(c3cccc(-c4ccccc4)c3)C2)CC1` was tested, and the Potency was inconclusive: 89.1 µM [inhibitor, partial curve, poor fit].
With `CCOC(=O)C1CCN(CC(=O)N2C(C)CCCC2C)CC1` (centres undefined) the Potency was inconclusive: 89.1 µM [inhibitor, partial curve, poor fit].
With `N#CC1=C2SCN(C3CCCCC3)CN2C(=O)CC1c1ccc(Br)cc1` (centres undefined) the Potency was active: 17.8 µM.
With `CCOC(=O)c1c(NC(=O)CCC(=O)O)sc2c1CCCCC2` the Potency was inconclusive: 50.1 µM [inhibitor, partial curve].
`C=CCn1c(=S)[nH]c2sc3c(c2c1=O)CCCC3` was tested, and the max response, negative = inhibition was inactive: -20.3%.
For `O=[N+]([O-])c1ccccc1C=NN1CCCCCC1`, the Potency was inconclusive: 89.1 µM [inhibitor, single point].
`Cc1ccccc1CC1(CO)CCCN(C(=O)c2ccc3ncccc3c2)C1` (centres undefined) was tested, and the Potency was active: 39.8 µM.
With `CCOC(=O)c1c(NC(=O)CSc2ncnc3ccccc23)sc(C)c1C` the max response, negative = inhibition was inactive: -17.2%.
For `Cc1ccc(-n2c(N)c(C(N)=O)sc2=S)c(C)c1`, the Potency was active: 89.1 µM.
In the case of `CC(C)(C)c1nc(S(=O)(=O)c2ccc(Cl)cc2)c(N2CCOCC2)o1`, the max response, negative = inhibition is reported as inactive: -27.8%.
In the case of `COC(=O)c1c(NC(=O)CCc2ccc(C)o2)sc(C)c1C`, the Potency is reported as inconclusive: 79.4 µM [inhibitor, partial curve, poor fit].
In the case of `COc1ccc2cc(CCNC(=O)c3ccc(Br)o3)c(=O)[nH]c2c1`, the max response, negative = inhibition is reported as inactive: -1.92%.
With `CCN1C(=O)CSC1=Nc1ccc(Cl)c(Cl)c1` the Potency was inconclusive: 89.1 µM [inhibitor, single point].
`CN(C)S(=O)(=O)c1ccc(N2CCCC2)c(C(=O)N2CCC(C(N)=O)CC2)c1` was tested, and the max response, negative = inhibition was inactive: -17%.
`c1cncc(Nc2nc(-c3cccs3)cs2)c1` was tested, and the Potency was inconclusive: 56.2 µM [inhibitor, partial curve, poor fit].
In the case of `O=C(N1CCc2[nH]c3ccccc3c2C1)C(F)(F)F`, the max response, negative = inhibition is reported as inactive: -6.78%.
For `CCN(CC(=O)NCc1ccccn1)S(=O)(=O)c1ccc(Cl)cc1`, the Potency was inconclusive: 56.2 µM [inhibitor, partial curve, poor fit].
With `CCOC(=O)/C(C#N)=C\c1c(C)cc(C)c(COC(C)=O)c1C` the Potency was inconclusive: 44.7 µM [inhibitor, partial curve, poor fit].
In the case of `COc1cccc(C2/C(=C(\O)c3ccc4c(c3)OCCO4)C(=O)C(=O)N2CCCn2ccnc2)c1` (centres undefined), the Potency is reported as inconclusive: 39.8 µM [inhibitor, single point].
In the case of `COc1cc2c3nnc(-c4ccccc4)c-3cn(Cc3ccccc3F)c2cc1OC`, the max response, negative = inhibition is reported as inactive: 10.9%.
With `CC(C)=CCC1=C(O)c2ccccc2C(=O)C1=O` the Potency was active: 35.5 µM and active: 25.1 µM.
`CN(C)C(=O)CSc1nc2cc(S(=O)(=O)N3CCOCC3)ccc2o1` was tested, and the Potency was inconclusive: 50.1 µM [inhibitor, partial curve, poor fit].
With `COc1ccc(N2CCN(C(=O)c3ccc(C(C)(C)C)cc3)CC2)cc1` the max response, negative = inhibition was inactive: 8.64%.
With `O=C(CSc1nnc(-c2cccs2)o1)OCc1ccccc1` the Potency was inconclusive: 89.1 µM [inhibitor, single point].
With `C1=CC2c3ccccc3NC(c3ccncc3)C2C1` (centres undefined) the Potency was inconclusive: 79.4 µM [inhibitor, single point].
With `Cc1cccc(Cn2c(=O)n(CCCCC(=O)NCc3ccc4c(c3)OCO4)c(=O)c3ccccc32)c1` the max response, negative = inhibition was inactive: -2.69%.
With `CN1CCc2nc(SCc3ccc(Cl)cc3)c(C#N)c(-c3cccs3)c2C1` the Potency was inconclusive: 56.2 µM [inhibitor, partial curve, poor fit].
`Cc1ccc(NC(=O)/C(C#N)=C/c2ccccc2Cl)cc1C` was tested, and the Potency was inconclusive: 50.1 µM [inhibitor, partial curve, poor fit].
For `Cc1ccc(OCCNC(=O)/C=C/c2ccco2)cc1C`, the Potency was inconclusive: 100 µM [inhibitor, single point].
For `Cc1c(S(=O)(=O)Nc2ccc(Br)cc2)c(=O)n(C)c(=O)n1C`, the Potency was inconclusive: 89.1 µM [inhibitor, partial curve, poor fit].
`O=C(COc1ccccc1Cl)N(Cc1ccco1)Cc1ccco1` was tested, and the max response, negative = inhibition was inactive: 12.5%.
In the case of `CC(=O)Nc1ccc(NC(=O)c2ccccc2Nc2ccccc2)cc1`, the max response, negative = inhibition is reported as inactive: 0.899%.
With `CN(C)C(=O)c1ccc(NC(=O)c2cc(-n3cnnc3)ccc2Cl)cc1` the Potency was inconclusive: 31.6 µM [inhibitor, full curve, poor fit].
For `Cc1ccccc1-n1c(=O)cc(N2CCc3ccccc3C2)[nH]c1=O`, the Potency was inconclusive: 89.1 µM [inhibitor, single point].
In the case of `c1cc2c3c(c1)c1c(n3CCNC2)CCCC1`, the Potency is reported as inconclusive: 89.1 µM [inhibitor, single point].
In the case of `O=C1C=C(N2CCOCC2)c2ccccc2C1=O`, the Potency is reported as inconclusive: 15.8 µM [inhibitor, full curve, poor fit].
For `C/C(=N\O)C(C)(C)Nc1ccccc1F`, the Potency was inconclusive: 79.4 µM [inhibitor, single point].
`COCCN(C)Cc1nc(C(c2ccccc2)c2ccccc2)no1` was tested, and the Potency was inconclusive: 2.82 µM [inhibitor, partial curve, poor fit].
In the case of `CCC(C)NC(=O)C1c2ccccc2C(=O)N(c2ccc(OC)cc2)C1c1ccc(OC)cc1` (centres undefined), the Potency is reported as inconclusive: 39.8 µM [inhibitor, single point].
With `CCCOc1ccc(Cn2cnc3ccccc32)cc1` the max response, negative = inhibition was inactive: -3.23%.
For `CCOCCCNC(=O)c1c(N)n(-c2ccc(S(N)(=O)=O)cc2)c2nc3ccccc3nc12`, the max response, negative = inhibition was inactive: 10.1%.
With `CCc1sc(C(=O)NCCc2ccc(S(N)(=O)=O)cc2)cc1Br` the Potency was inconclusive: 100 µM [inhibitor, single point].
For `Cc1cc(OCCN2CCOCC2)ccc1Cl`, the max response, negative = inhibition was inactive: -28.8%.
With `CCc1ccc2c(O)c3c(cc2c1C(=O)OC)C(=O)c1c(O)ccc(O)c1C3=O` the Potency was inconclusive: 11.2 µM [inhibitor, full curve].
For `Cc1cccn2c(=O)c3cc(C(N)=S)c(=N)n(CCCN4CCOCC4)c3nc12`, the Potency was inconclusive: 31.6 µM [inhibitor, full curve, poor fit].
`CC(=O)Nc1ccc(SCCN2CC[C@@H](O)CCC2=O)cc1` was tested, and the Potency was inconclusive: 44.7 µM [inhibitor, partial curve, poor fit].
`CCOC(=O)/C=C/C(=O)OCC(=O)Nc1ccc(C)cc1` was tested, and the Potency was inconclusive: 25.1 µM [inhibitor, full curve, poor fit].
In the case of `CC(C)(C)NC(=O)Cn1c(SCC(N)=O)nc2ccccc21`, the Potency is reported as inconclusive: 28.2 µM [inhibitor, single point].
For `CC1CCCC(C)N1C(=O)COC(=O)c1ccco1` (centres undefined), the max response, negative = inhibition was inactive: -12.2%.
For `CCN(CC)c1ccc(/C=N/N2CCN(Cc3ccccc3)CC2)c(O)c1`, the Potency was inconclusive: 89.1 µM [inhibitor, single point].
`COc1ccc([C@H]2C(C#N)=C([S-])N[C@](C)(O)[C@@H]2[n+]2ccccc2)cc1` was tested, and the Potency was inconclusive: 79.4 µM [inhibitor, partial curve].
